Measured values published in doi:10.1101/2021.09.10.459716.
Results are given in words; binding and its absence hold for the method and conditions named. In cells and extracts the contact can be indirect. Here binding means that the protein was enriched with, or labelled near, the bait; the list need not be complete.

Biological target: T1, S. islandicus Dpo1 (SiRe_1451) (Sulfolobus islandicus) (UniProt F0NBI0)
T1 sequence: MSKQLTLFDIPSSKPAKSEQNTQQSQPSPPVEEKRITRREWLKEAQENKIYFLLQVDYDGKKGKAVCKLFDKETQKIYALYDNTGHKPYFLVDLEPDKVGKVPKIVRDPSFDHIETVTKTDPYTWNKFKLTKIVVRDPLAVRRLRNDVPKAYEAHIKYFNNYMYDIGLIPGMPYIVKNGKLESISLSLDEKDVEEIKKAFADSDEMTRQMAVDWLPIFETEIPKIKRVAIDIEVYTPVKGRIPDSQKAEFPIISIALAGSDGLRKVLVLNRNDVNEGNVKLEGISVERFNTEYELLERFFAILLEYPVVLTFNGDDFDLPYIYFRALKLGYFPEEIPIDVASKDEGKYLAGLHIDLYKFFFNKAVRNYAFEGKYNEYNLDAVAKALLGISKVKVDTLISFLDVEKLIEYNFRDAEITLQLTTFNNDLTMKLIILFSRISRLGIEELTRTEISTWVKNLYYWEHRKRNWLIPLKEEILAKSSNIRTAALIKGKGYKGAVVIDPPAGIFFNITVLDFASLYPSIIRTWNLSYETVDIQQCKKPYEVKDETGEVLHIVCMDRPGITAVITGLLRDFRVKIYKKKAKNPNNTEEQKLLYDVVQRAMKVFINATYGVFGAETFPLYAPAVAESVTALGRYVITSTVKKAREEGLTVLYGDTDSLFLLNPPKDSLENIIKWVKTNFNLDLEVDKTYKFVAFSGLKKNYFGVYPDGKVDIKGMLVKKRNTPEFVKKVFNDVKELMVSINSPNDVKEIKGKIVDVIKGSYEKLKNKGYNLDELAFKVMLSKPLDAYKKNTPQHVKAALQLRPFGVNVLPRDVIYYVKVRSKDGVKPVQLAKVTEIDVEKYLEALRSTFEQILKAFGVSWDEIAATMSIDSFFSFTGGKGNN
Assay: affinity purification with mass spectrometry

B1: PBP1 (SiRe_1861) (protein, UniProt F0NI39 1-97)
chain: MSTRWSPKWKAIEIDHNNKKVTICYDETTKLYVCPICSPNCAKGVSTDYSTYFFDLEDLKRHLDAHKHGLWLQKKIRTEEEEEEPKLSVGEEEIEEE
binding: binds
